Experimental data reported in publication PMC12393752.
No constants are given. Whether binding was seen depends on the method and setting. Binding seen in cells or lysates may run through a third protein. Some binding calls cover weakened binding; strength is not graded here. Tags and fused reporters may be left off the sequences shown.

Amino acid sequences for entries named in this document (tags omitted).
UniProt Q9SMV6: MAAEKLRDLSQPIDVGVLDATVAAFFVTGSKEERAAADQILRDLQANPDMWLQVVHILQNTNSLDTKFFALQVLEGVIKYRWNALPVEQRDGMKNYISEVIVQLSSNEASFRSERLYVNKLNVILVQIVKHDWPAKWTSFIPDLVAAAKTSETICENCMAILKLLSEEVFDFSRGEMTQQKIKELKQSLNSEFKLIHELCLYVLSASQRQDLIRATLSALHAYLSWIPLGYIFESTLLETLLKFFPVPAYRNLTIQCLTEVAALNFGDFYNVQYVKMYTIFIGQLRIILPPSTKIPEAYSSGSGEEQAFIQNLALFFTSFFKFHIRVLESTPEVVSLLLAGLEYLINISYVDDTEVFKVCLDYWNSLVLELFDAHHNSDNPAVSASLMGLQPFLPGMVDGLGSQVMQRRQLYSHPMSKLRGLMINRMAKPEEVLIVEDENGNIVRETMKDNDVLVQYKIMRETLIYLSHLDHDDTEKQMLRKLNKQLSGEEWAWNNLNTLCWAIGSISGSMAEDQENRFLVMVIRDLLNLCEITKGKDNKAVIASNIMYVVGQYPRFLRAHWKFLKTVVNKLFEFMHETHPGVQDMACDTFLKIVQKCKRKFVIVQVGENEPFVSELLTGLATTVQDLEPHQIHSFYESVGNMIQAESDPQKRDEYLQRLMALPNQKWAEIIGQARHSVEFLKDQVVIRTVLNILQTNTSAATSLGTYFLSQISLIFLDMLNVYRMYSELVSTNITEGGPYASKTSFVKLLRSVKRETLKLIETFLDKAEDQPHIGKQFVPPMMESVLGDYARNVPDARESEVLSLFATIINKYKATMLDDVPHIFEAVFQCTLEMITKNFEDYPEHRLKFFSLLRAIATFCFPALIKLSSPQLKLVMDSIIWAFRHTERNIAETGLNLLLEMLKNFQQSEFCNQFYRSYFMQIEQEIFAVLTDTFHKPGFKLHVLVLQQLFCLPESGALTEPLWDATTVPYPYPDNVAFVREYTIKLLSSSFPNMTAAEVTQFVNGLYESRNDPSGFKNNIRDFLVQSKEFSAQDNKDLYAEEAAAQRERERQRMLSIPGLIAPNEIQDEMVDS

How the values were obtained:
[1] = target: T1, TBSV Flag-p33 replication protein (Tomato bushy stunt virus) (UniProt P15962); assay: co-IP; Flag-tagged replication proteins and His6-XPO1 co-expressed in yeast; membrane fraction solubilized with detergent; Flag-tagged proteins immobilized on a Flag-column; eluate analysed by western blot
T1 sequence: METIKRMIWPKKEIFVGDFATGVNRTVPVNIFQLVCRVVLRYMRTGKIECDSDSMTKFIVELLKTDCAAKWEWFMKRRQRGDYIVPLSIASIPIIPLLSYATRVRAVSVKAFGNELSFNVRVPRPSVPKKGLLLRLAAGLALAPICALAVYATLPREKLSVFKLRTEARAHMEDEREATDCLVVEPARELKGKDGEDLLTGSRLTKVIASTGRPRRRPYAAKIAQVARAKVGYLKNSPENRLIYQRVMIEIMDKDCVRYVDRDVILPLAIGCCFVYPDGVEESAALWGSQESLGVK

[2] = target: T2, TBSV p33-cYFP replication protein (Tomato bushy stunt virus) (UniProt P15962); assay: split reporter; BiFC (nYFP and cYFP fusions) in agroinfiltrated N. benthamiana leaves (wild type or H2B-CFP transgenic), with p19, inoculated with TBSV or CIRV sap 12 h later (Nuc-L1 with XPO1 also in plants without virus); confocal microscopy at 2-2.5 dpi; p33 and p36 with XPO1 also in leaves treated with 400 nM LMB or 0.5% EtOH
T2 sequence: T1 sequence

Substance	binding [1]	binding [2]
His6-XPO1 (from UniProt Q9SMV6 1-1075)	binds	
nYFP-XPO1 (exportin-1, XPO1/CRM1) (from UniProt Q9SMV6 1-1075)		binds
